The record followed here is paper PMC7819943, “Rice protein-binding microarrays: a tool to detect cis-acting elements near promoter regions in rice”.

This is one part of the list.

The target of this test is T1, OsSMF1 (Oryza sativa, UniProt Q6ZLB0 1-436).
T1 sequence: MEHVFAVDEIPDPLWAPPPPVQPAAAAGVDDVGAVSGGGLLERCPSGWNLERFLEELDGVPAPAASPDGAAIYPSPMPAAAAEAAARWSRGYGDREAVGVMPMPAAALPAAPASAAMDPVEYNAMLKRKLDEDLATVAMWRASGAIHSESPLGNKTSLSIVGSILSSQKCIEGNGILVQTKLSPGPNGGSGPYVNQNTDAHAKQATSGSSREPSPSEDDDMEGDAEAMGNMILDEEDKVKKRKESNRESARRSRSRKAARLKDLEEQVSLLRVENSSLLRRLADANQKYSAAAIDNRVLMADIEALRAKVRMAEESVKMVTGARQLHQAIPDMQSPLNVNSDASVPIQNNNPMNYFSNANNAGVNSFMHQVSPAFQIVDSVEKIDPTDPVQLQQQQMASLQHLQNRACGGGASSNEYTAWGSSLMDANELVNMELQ
Kind of test: protein-binding microarray (RPBM); PBS, 2% BSA, 51.3 ng/ul salmon testes DNA, 50 uM zinc acetate, 200 nM TF, 25 C, 1 h; high values mean tight binding. As to conditions: protein: recombinant; tags: N-terminal polyhistidine and DsRed monomer fusion (pET32a); chain copies: 2; label: CyDye5-dUTP incorporated in the synthesized complementary strand; 3' TTTTT single-stranded linker to array surface; dsDNA, one strand shown. A digest of the protocol:
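Binding signal is reported as fluorescence intensity per feature (arbitrary units) from an Axon 4000B scanner. Incubation used 200 nM of each Ni–NTA-purified, N-terminally polyhistidine- and DsRed-fused transcription factor from E. coli BL21-CodonPlus on a double-stranded custom Agilent array for 1 h at 25 °C, with 50 µM zinc acetate in the buffer, followed by washing.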
For “CCTCACCATTCGAGCTGGACGTGGTGAGTGACGTGGTTGACGGAGTCACCTAGTGCAG”, the binding signal is 15100 fluorescence intensity (a.u.).

Regarding “CCGCTTCTCCGGAAACTAGCCGTTGGGGCGCCGCCGCCGCCGGAGTCACCTAGTGCAG”, the binding signal was 27200 fluorescence intensity (a.u.).

Take “ACAAGCCACGTAGGCGCCACGTCAGCCAAAACCGCCTTCACGGAGTCACCTAGTGCAG”: the binding signal is 44100 fluorescence intensity (a.u.).

As to “TCGTGGATGTGAGGTTGCCGGCTATTGCCGTCATCACTGACGGAGTCACCTAGTGCAG”, the binding signal is 3160 fluorescence intensity (a.u.).

On to “CGTACCGTTCGGATCTGGTCATCGTGTACGGAGGAGGAAACGGAGTCACCTAGTGCAG”, for which the binding signal was 3760 fluorescence intensity (a.u.).

As to “CCCTTACTGATTGGACGGTCCCGCGCATAAGCATGCGCACCGGAGTCACCTAGTGCAG”, the binding signal is 18600 fluorescence intensity (a.u.).

As for “GTGGGAGAGGCCGGCCGAGGGGAGGAGAGGGGAGGGGTGCCGGAGTCACCTAGTGCAG”, the binding signal is 4960 fluorescence intensity (a.u.).

Take “CCCCGCCGGAATCCGCGGCGAGCGGCGAGCGTCCCGAGCCCGGAGTCACCTAGTGCAG”: the binding signal is 3400 fluorescence intensity (a.u.).

For “CACAGATATTAGTGACGGTGGATAGTTTTGTAAAATTCTGCGGAGTCACCTAGTGCAG”, the binding signal is 4630 fluorescence intensity (a.u.).

Take “GTAGTACTACAACTCTACAAGCCACAGACAGGAAACAGGACGGAGTCACCTAGTGCAG”: the binding signal was 3880 fluorescence intensity (a.u.).

Take “GATTCCTTTTCGAATATTTACGTGTACATAACAAATTCCTCGGAGTCACCTAGTGCAG”: the binding signal was 3910 fluorescence intensity (a.u.).

Regarding “AGAGCAAATTCTCTGATTCATCTCGCACGTAACGTAACGTCGGAGTCACCTAGTGCAG”, the binding signal was 3330 fluorescence intensity (a.u.).

In the case of “GACCAGAGTTCAGTTCACCGCTGACTGACATAAATAAATGCGGAGTCACCTAGTGCAG”, the binding signal is 3530 fluorescence intensity (a.u.).

For the sequence “TCCAGATCTTGGCGCCGCCGGATCCCGTCAGTCTCCACAACGGAGTCACCTAGTGCAG”, the binding signal is 48300 fluorescence intensity (a.u.).

Consider “AAGGCTCCTCACCTCCTTGGGATCTTGTGCTTGGGCGCGTCGGAGTCACCTAGTGCAG”, for which the binding signal was 17900 fluorescence intensity (a.u.).

Regarding “CACTCTAAGCCAAATGCCCCAGTTGGAGCAAGGTATTCACCGGAGTCACCTAGTGCAG”, the binding signal is 3840 fluorescence intensity (a.u.).

As to “TTCCTCAATCTCCAAGCCTCGATATCCGTGTTCTTCTCTGCGGAGTCACCTAGTGCAG”, the binding signal was 3660 fluorescence intensity (a.u.).

For the sequence “TTTATATCATATATATCCATTGCAAGCATAGGCCTTTAGCCGGAGTCACCTAGTGCAG”, the binding signal was 32400 fluorescence intensity (a.u.).

On to “TTTGAAAATAATACTCCCTCCGTTTCATAATATAAGTGATCGGAGTCACCTAGTGCAG”, for which the binding signal was 3260 fluorescence intensity (a.u.).

Turning to “CGCTGCGGGGAGTCGGCGCTTCGTCGGAGGCGGCGGGGCGCGGAGTCACCTAGTGCAG”, the binding signal is 3230 fluorescence intensity (a.u.).

Regarding “GTCCACCGTGGACTTCTCCAAGTCCACGTCTTCGTGCGACCGGAGTCACCTAGTGCAG”, the binding signal is 4160 fluorescence intensity (a.u.).

“ATTGCAATGGAGTGTGGTGACGAGATGCCCACTGGTGACACGGAGTCACCTAGTGCAG”: the binding signal was 3750 fluorescence intensity (a.u.).

With “TTCATCCTGGTGAAACTCGTCAGCGTCGTTTCCAAGTCCTCGGAGTCACCTAGTGCAG”, the binding signal is 6150 fluorescence intensity (a.u.).

Regarding “AATTAGGCTCAATAGATTCGTGTCGCGAATTAGTCCAAGACGGAGTCACCTAGTGCAG”, the binding signal is 3250 fluorescence intensity (a.u.).

As to “AGGGCGGCGGTGGCGGCACTGGCCTGGCAGGGGTGGGAGTCGGAGTCACCTAGTGCAG”, the binding signal is 3670 fluorescence intensity (a.u.).

For the sequence “TAATTGTATTGGGTGCATACATTATATTTATTAGGGTGATCGGAGTCACCTAGTGCAG”, the binding signal is 26800 fluorescence intensity (a.u.).

As for “CGAGGGAGTGGAGCAGGTTGGGACGCGTACTGACGTGAGACGGAGTCACCTAGTGCAG”, the binding signal is 36100 fluorescence intensity (a.u.).

With “AGGATAACCTCATCACTTTGGACTGGAGGGAGTACTTAGACGGAGTCACCTAGTGCAG”, the binding signal was 23500 fluorescence intensity (a.u.).

As to “GCCGCACCGGTCGGTTTCAGCGCGTGTGACACGCAGATTCCGGAGTCACCTAGTGCAG”, the binding signal is 3500 fluorescence intensity (a.u.).

Take “AATTCAATGTGCGACGGTGACGACATGAGTGATAGGACTACGGAGTCACCTAGTGCAG”: the binding signal was 3590 fluorescence intensity (a.u.).

With “AGAAGAGAATGGAGTGGAGCTGACATGTGGGCTCCACCATCGGAGTCACCTAGTGCAG”, the binding signal was 3950 fluorescence intensity (a.u.).

“CCTTTCCCTCTCCACTCTCCACCATCCTCTGCAGCTGACTCGGAGTCACCTAGTGCAG”: the binding signal is 3330 fluorescence intensity (a.u.).

Turning to “ATATTTTGCCTGTACTGTTTGACAACTCATCTTATTCAAACGGAGTCACCTAGTGCAG”, the binding signal is 4120 fluorescence intensity (a.u.).

In the case of “CTCCACGCGGTGCCACTTGTCCGTCTTCTCCTCCTGCTCCCGGAGTCACCTAGTGCAG”, the binding signal is 3210 fluorescence intensity (a.u.).

Take “GCATCTGAACGTGTCGAGTCACACCTGTCTGTTAGGTCCGCGGAGTCACCTAGTGCAG”: the binding signal was 6560 fluorescence intensity (a.u.).

Turning to “GGTCGATCTGGCCGTCCACGTGTCCCAGCCTGACTACCCTCGGAGTCACCTAGTGCAG”, the binding signal was 12200 fluorescence intensity (a.u.).

“GCGATGGTTATATATCGGTTGATTGTTTGCCATCTCATAGCGGAGTCACCTAGTGCAG”: the binding signal was 4830 fluorescence intensity (a.u.).

As to “ACCACCGGTTGTTGCGGGGCCACGCGATCCCGCCACCGTCCGGAGTCACCTAGTGCAG”, the binding signal is 4160 fluorescence intensity (a.u.).

For “GGCGGCCGGGATCACGGTGCGCCGCCGTTCGGACCTACTGCGGAGTCACCTAGTGCAG”, the binding signal was 3540 fluorescence intensity (a.u.).

Take “GTTCATCAGCGTAGGCGTGTGTCATGTCGTAGCGAACGACCGGAGTCACCTAGTGCAG”: the binding signal was 4380 fluorescence intensity (a.u.).

For the sequence “ATCGCATCGCATCGTCATCGCGACTCATCTCGCCTTAACGCGGAGTCACCTAGTGCAG”, the binding signal was 4760 fluorescence intensity (a.u.).

In the case of “ATGTTACCATGGTGGTGTCTGACTCATTGCAGTCTTATCTCGGAGTCACCTAGTGCAG”, the binding signal is 10200 fluorescence intensity (a.u.).
